From PubChem BioAssay AID2685 (National Center for Advancing Translational Sciences (NCATS), 2010)
This is one part of the list. These are further read-outs of the screen, such as a control signal, another cell line or another target. No call is given for them. Most of these compounds were active or inconclusive in the main read-out, so they are no random draw. Words in brackets tell the shape of the fitted curve; partial curves, single points and poor fits give uncertain potencies.

Assay: qHTS Assay for Lipid Storage Modulators in Drosophila S3 Cells;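 for cell number change: cells counted by Cell Tracker Red CMTPX staining in the red channel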
Details: BODIPY lipid droplet fluorescence, 18-24 h; for cell number change: measured here: cell count max response, cells fed with added oleic acid
Outline: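 Laser-scanning cytometry quantifies lipid droplet accumulation (500–530 nm total intensity; droplet/cell object ratio) in oleic acid-fed (400 uM added) Drosophila S3 cells treated with a concentration series. 20 uM Triacsin C defined 100% inhibition.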

[1] = measured here: lipid fluorescence (Fed channel) AC50, cells fed with added oleic acid

SMILES | cell number change [%] | AC50 [1] | AC50 (measured here: cell number channel AC50, cells fed with added oleic acid)
NC1=NC(=O)/C(=C/c2cn(Cc3ccccc3)c3ccccc23)S1 | -8.65 | – | –
COCCCN(C(=O)c1ccccc1)c1nc(-c2ccc(OC)cc2)cs1 | – | 11600 nM [falling, partial curve] | –
CC(=O)Nc1cc(C(N)=O)c(Cl)cc1Cl | 3.61 | 920 nM [falling, full curve, poor fit] | –
CC(=O)Nc1ccc(NC(=O)Cc2sc(-c3cccnc3)nc2-c2ccc(C)cc2)cc1 | -2.23 | – | –
COc1ccc(NC2CCCN(C(=O)COc3ccc(C)cc3)C2)cc1 (stereo unspecified) | – | 1840 nM [falling, partial curve] | –
Cc1ccc(OCCCn2cc(C#N)c3ccccc32)cc1 | -27.1 | 32600 nM [falling, single point] | –
O=C(CCN1C(=O)c2ccccc2C1=O)NCCC1=CCCCC1 | 8.69 | 461 nM [rising, full curve, poor fit] | 326 nM [rising, partial curve, poor fit]
Cc1nn(C)c(C(=O)NNC(=S)NC2CCCCC2)c1Cl | 18.9 | 9200 nM [rising, partial curve] | –
Cc1ccc(S(=O)(=O)/N=C2/NC(=O)/C(=C/c3ccccn3)S2)cc1 | 3.4 | 411 nM [rising, partial curve, poor fit] | –
C=CCn1cc(F)c(=O)n(CC=C)c1=O | -21.7 | 5.17 nM [falling, full curve, poor fit] | –
Cc1cc(C)n(-c2nc(SCC(=O)O)c3c4c(sc3n2)COC(C)(C)C4)n1 | 11 | – | –
O=C1CC(NNc2ccccc2)C(=O)N1c1ccc(N2CCCCC2)cc1 (stereo unspecified) | 73.8 | – | –
Cc1nc2ccccc2nc1N1CCOCC1 | 60.5 | – | –
S=c1[nH]nc(-c2cc(-c3ccccc3)n[nH]2)n1/N=C/c1ccccc1 | -24.1 | 18400 nM [falling, single point] | –
O=C(Nc1ccccc1OC(F)F)c1ccc(-n2cncn2)c([N+](=O)[O-])c1 | 6.73 | – | –
CN(C)S(=O)(=O)c1ccc(C(=O)Nc2nnc(SCC(=O)NCC3CCCO3)s2)cc1 (stereo unspecified) | 28.6 | 14600 nM [rising, partial curve] | –
Cc1cccc2cc(CN(CC3CCCO3)C(=O)c3cccs3)c(=O)[nH]c12 (stereo unspecified) | -3.06 | 411 nM [rising, full curve, poor fit] | –
COc1ccccc1NC(=O)COC(=O)c1c(C)nn(-c2ccccc2)c1C | -5.06 | 8200 nM [rising, partial curve] | –
Cc1ccccc1CNc1ccc(C(CC(N)=O)NC(=O)c2ccccc2)cc1[N+](=O)[O-] (stereo unspecified) | 3.46 | 2060 nM [rising, single point] | –

A few values from above:
For cell number change [%], `CC(=O)Nc1cc(C(N)=O)c(Cl)cc1Cl` has 3.61
For cell number change [%], `Cc1nn(C)c(C(=O)NNC(=S)NC2CCCCC2)c1Cl` has 18.9
